From US11548891B1, “Quaternary ammonium salts of phenanthroindolizidine and phenanthroquinolizidine alkaloids as hypoxia-targeted anticancer agents” (BATTERJEE MEDICAL COLLEGE, priority 2022, dated 2023)
For at least one compound, name, drawing or mass did not settle the structure.

Experiment: Plasma protein binding (PPB)
Assay type: in vitro ADME

| SMILES | PPB (% of Bound Compound) Mean ± SE [%] |
| --- | --- |
| COc1cc2c3c(c4cc(OC)c(OC)cc4c2cc1OC)CN1CCC[C@H]1C3 [(S)-Tylophorine] | 93.9 ± 0.7 |
| COc1ccc2c3c(c4cc(OC)c(OC)cc4c2c1)C[C@H]1CCCN1C3 [(R)-Antofine, (R)-antofine] | 98.1 ± 0.15 |
